Here are results for 36 molecules from PubChem BioAssay (NCATS).

SMILES strings stand for the structures. This is one part of the list. The main result of the screen is listed elsewhere. These columns were measured beside it and carry no call. The list favours compounds with an active or inconclusive main result. The note in brackets gives the kind of curve behind each potency; many fits are weak.

In general, AC50 refers to the concentration giving half of the maximal activity seen. Read a high AC50 as weaker potency.

The assay can be described thus: S16 Schwann cell PMP22 intronic element beta-lactamase assay (AID 624044). Particulars: S16 rat Schwann cells, PMP22 element beta-lactamase FRET, 24 h; measured here: 460 nm blue channel. Put shortly:
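Beta-lactamase reporter under a PMP22 intronic regulatory element in stable S16 rat Schwann cells; 24 h compound exposure. 460 nm blue signal normalized between DMSO (0%) and potassium clavulanate, with 535 nm FRET tracking viability; curves classed by r2 and response.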
As for `Cc1ccc(O)c2ncccc12`, the AC50 is 0.0158 µM [falling, full curve, poor fit].
With `O=C(O[C@H]1CN2CCC1CC2)N1CCc2ccccc2[C@@H]1c1ccccc1`, the AC50 is 0.562 µM [falling, full curve, poor fit].
`O=C(OC[C@@H](O)CO)c1ccccc1Nc1ccnc2cc(Cl)ccc12`: the AC50 is 9.51 µM [rising, partial curve, poor fit].
For `c1ccc2sc(SN3CCOCC3)nc2c1`, the AC50 is 2.51 µM [falling, partial curve, poor fit].
In the case of `O=c1[nH]c(=O)n(C2C[C@H](O)[C@@H](CO)O2)cc1C(F)(F)F` (stereo partly specified) it was 1.26 µM [falling, full curve, poor fit]; in that of `CC(C)OC(=O)Nc1ccc2nc(-c3cscn3)[nH]c2c1`, 2.24 µM [falling, partial curve, poor fit]; in that of `Nc1nc(Cl)nc2c1ncn2[C@@H]1O[C@H](CO)[C@H](O)C1F` (stereo partly specified), 5.62 µM [falling, partial curve].
As to `CC1(C)CC1C(=O)N/C(=C/CCCCSCC(N)C(=O)O)C(=O)O` (stereo unspecified), the AC50 is 8.91 µM [falling, partial curve, poor fit].
In the case of `COC(=O)C1=C(C#N)NC(C)=C(C(=O)OC(C)C)C1c1cccc([N+](=O)[O-])c1` (stereo unspecified), the AC50 is 4.46 µM [falling, partial curve, poor fit].
In the case of `COc1ccc(-c2cc(=S)ss2)cc1` it was 0.0355 µM [falling, full curve, poor fit]; in that of `CCOC(=S)SSC(=S)OCC`, 0.0999 µM [falling, full curve, poor fit].
In the case of `C[C@]12CCC(=O)C=C1CC[C@H]1[C@@H]3CC[C@](O)(C(=O)CO)[C@@]3(C)C[C@H](O)[C@@]12F`, the AC50 was 0.0446 µM [falling, full curve, poor fit].
As for `C[C@@H]1C(SC2Cn3cnc[n+]3C2)=C(C(=O)[O-])N2C(=O)[C@H]([C@@H](C)O)[C@@H]12` (stereo partly specified), the AC50 was 3.16 µM [falling, full curve, poor fit].
Consider `O=C(O)CCC(=O)O`, for which the AC50 is 1.58 µM [falling, full curve, poor fit].
As for `CO/N=C(\C(=O)N[C@@H]1C(=O)N2C(C(=O)[O-])=C(C[n+]3cccc4c3CCC4)CS[C@H]12)c1csc(N)n1`, the AC50 is 0.398 µM [falling, full curve, poor fit].
As to `CC(=O)OCC(=O)[C@@]1(O)[C@H](C)C[C@@H]2[C@H]3CCC4=CC(=O)C=C[C@]4(C)[C@]3(F)[C@@H](O)C[C@@]21C`, the AC50 was 1.9 µM [falling, full curve, poor fit].
Take `Cc1cc(C(=O)NCCc2ccc(S(=O)(=O)NC(=O)NN3CCCCCC3)cc2)no1`: the AC50 was 15.8 µM [rising, partial curve, poor fit].
As for `CCN1CCN(C(=O)NC(C(=O)NC2C(=O)N3C(C(=O)O)=C(CSc4nnnn4C)CSC23)c2ccc(O)cc2)C(=O)C1=O` (stereo unspecified), the AC50 was 25.1 µM [falling, single point].
Take `CCCC(=O)O[C@]1(C(=O)COC(C)=O)CC[C@H]2C3C[C@H](F)C4=CC(=O)C=CC4(C)[C@@]3(F)[C@@H](O)CC21C` (stereo partly specified): the AC50 was 22.4 µM [falling, partial curve, poor fit].
In the case of `C#C[C@]1(O)CC[C@@H]2[C@H]3CCC4=CC(=O)CC[C@H]4[C@H]3C(=C)C[C@@]21CC` it was 5.62 µM [falling, full curve].
On to `c1ccc(CNCCNCc2ccccc2)cc1`, for which the AC50 is 1.41 µM [falling, full curve, poor fit].
For the molecule `C[C@@H]1CCC[C@H](C)N1`, the AC50 was 1.9 µM [falling, full curve, poor fit].
For `CC(C)c1ncc([N+](=O)[O-])n1C` the value was 1.78 µM [falling, full curve, poor fit]; for `CN1CCCC(CN2c3ccccc3Sc3ccccc32)C1` (stereo unspecified), 0.0562 µM [falling, full curve, poor fit].
Take `CCC(C)C(N)C(=O)O` (stereo unspecified): the AC50 is 15.8 µM [falling, partial curve, poor fit].
For `CC1(C)[C@@H]2CC[C@@]1(C)C(=O)C2` the value was 5.01 µM [falling, full curve]; for `CN(C)CCC[C@@]1(c2ccc(F)cc2)OCc2cc(C#N)ccc21`, 0.00501 µM [falling, full curve, poor fit].
For the molecule `CC(C)(Cc1c[nH]c2ccccc12)NCC(O)COc1ccccc1C#N` (stereo unspecified), the AC50 was 0.0316 µM [falling, full curve, poor fit].
For `COc1ccc(/C=C/C(=O)OCCC(C)C)cc1` the value was 9.99 µM [rising, single point]; for `CC(=O)O[C@@]12CO[C@@H]1C[C@H](O)[C@@]1(C)C(=O)[C@H](O)C3=C(C)[C@@H](OC(=O)C(O)[C@@H](NC(=O)OC(C)(C)C)c4ccccc4)C[C@@](O)([C@@H](OC(=O)c4ccccc4)[C@H]21)C3(C)C` (stereo partly specified), 0.158 µM [falling, full curve, poor fit]; for `CN[C@@H]1[C@H](O[C@@H]2O[C@H](CO)[C@@H](N)[C@H](O)[C@@H]2O)O[C@H]2C[C@@H](N)[C@@H](O[C@H]3[C@@H](O)[C@H](O)[C@H](N)C[C@@H]3N)O[C@H]2[C@H]1O`, 6.73 µM [falling, partial curve, poor fit].
Consider `CC(=O)OCC(=O)[C@@]1(O)CCC2C3CCC4=CC(=O)CC[C@]4(C)C3=CC[C@@]21C` (stereo partly specified), for which the AC50 was 0.282 µM [falling, full curve, poor fit].
In the case of `CCC(C(=O)O)C1OC(C(C)C(O)C(C)C(=O)C(CC)C2OC3(C=CC(O)C4(CCC(C)(C5CCC(O)(CC)C(C)O5)O4)O3)C(C)CC2C)C(C)CC1C` (stereo unspecified) it was 7.07 µM [falling, partial curve].
For `C[C@]12CC[C@H]3c4ccc(O)cc4CC[C@@H]3[C@H]1CC[C@@H]2OP(=O)(O)O`, the AC50 is 5.01 µM [falling, partial curve, poor fit].
For `COC1C(OC(=O)/C=C/C=C/C=C/C=C/C(=O)O)CCC2(CO2)C1C1(C)OC1CC=C(C)C` (stereo unspecified) the value was 0.00446 µM [falling, full curve, poor fit]; for `CCCCCCCCCCCCCC[n+]1ccc(C)cc1`, 15.8 µM [falling, partial curve].
